Experimental data reported in PubChem BioAssay AID588590 (National Center for Advancing Translational Sciences (NCATS), 2011).
Out of some 390,000 compounds screened, about 4,000 (1%) were called active. Inconclusive means that the source gave no clear call. Such entries were picked first, then a sample of the others. Calls follow the shape of the dose curve; as a rule, active = well fitted inhibition curve with a large enough effect; inconclusive = small, poorly fitted or top-dose-only effect, or another doubt; inactive = no such curve, though single readings can be large or run the other way. Potencies beside an inconclusive call are fits to weak or partial responses and may not hold up.

Protein sequences, listed by entry. Tags and fused reporters are not part of them. Lines headed by an entry give the natural chain unless they say otherwise; changes in a name come on top.
UniProt Q9UNA4: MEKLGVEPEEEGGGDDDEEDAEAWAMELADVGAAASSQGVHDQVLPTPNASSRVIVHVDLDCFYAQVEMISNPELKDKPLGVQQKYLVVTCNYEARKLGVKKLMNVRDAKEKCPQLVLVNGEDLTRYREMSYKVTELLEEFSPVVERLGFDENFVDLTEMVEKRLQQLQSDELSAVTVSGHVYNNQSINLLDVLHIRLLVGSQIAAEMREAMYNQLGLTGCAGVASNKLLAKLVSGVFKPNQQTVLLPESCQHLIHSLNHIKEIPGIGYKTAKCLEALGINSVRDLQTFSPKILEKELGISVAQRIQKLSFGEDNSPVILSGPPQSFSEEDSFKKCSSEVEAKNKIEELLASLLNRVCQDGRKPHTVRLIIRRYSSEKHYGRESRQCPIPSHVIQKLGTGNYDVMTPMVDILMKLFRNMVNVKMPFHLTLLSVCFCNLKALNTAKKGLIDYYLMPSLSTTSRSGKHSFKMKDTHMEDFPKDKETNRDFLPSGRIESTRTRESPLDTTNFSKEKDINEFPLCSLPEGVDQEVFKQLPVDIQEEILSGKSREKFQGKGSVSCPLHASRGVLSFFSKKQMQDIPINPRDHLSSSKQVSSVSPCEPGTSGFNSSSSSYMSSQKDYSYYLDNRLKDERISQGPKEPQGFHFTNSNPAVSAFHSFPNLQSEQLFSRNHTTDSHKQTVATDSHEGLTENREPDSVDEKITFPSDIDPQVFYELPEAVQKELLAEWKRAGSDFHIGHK

What follows are compounds tested against DNA polymerase iota (Homo sapiens) (UniProt Q9UNA4) (assay: qHTS for Inhibitors of Polymerase Iota). Details: Pol iota fluorescent replication assay, 10 min; series mostly up to 115 µM.
How it was run: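 Fluorescent replication assay read twice, at 0 min and 10 min after adding 50 nM (final) substrate. Enzyme (10 nM) and compounds were first incubated 15 min at room temperature; enzyme-free buffer wells were negative controls.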
Potency is read from the fitted curve at half-maximal effect.

Compound	Potency
CC(=O)Nc1nc(C=C(Cl)Cl)cs1	inconclusive: 11.2 µM [inhibitor, partial curve]
COc1ccccc1N1CCN(CC(O)c2ccc3cc[nH]c3c2)CC1 (centres undefined)	inconclusive: 2.82 µM [inhibitor, full curve, poor fit]
O=C(NCc1ccco1)c1ccc(S(=O)(=O)N2CCCCC2)cc1	inactive
CCC(=O)C1=C(c2ccc(F)cc2)N(C(=O)CC)n2cnnc2S1	inconclusive: 31.6 µM [inhibitor, single point]
COc1cccc(C2Nc3ccccc3C(=O)N2O)c1O (centres undefined)	inactive
CCC(C)[C@H]1COCCS(=O)(=O)N1Cc1ccccc1F (some centres undefined)	inconclusive: 11.2 µM [inhibitor, partial curve, poor fit]
CCOc1ccccc1C(=O)NCc1ccco1	inconclusive: 17.8 µM [inhibitor, full curve, poor fit]
CN(C)N1C(N)=C(C#N)C(c2ccc(F)cc2)C2=C1CCCC2=O (centres undefined)	inactive
CCOc1cc(CNc2ccc3c(c2)CCC3)ccc1O	inconclusive: 14.1 µM [inhibitor, partial curve, poor fit]
CN1c2ccsc2/C(=N/Nc2ccccc2)CS1(=O)=O	inconclusive: 31.6 µM [inhibitor, partial curve, poor fit]
CC(=O)Nc1c(O)nc(SCC(=O)Nc2nnc(CC(C)C)s2)[nH]c1=O	inactive
CC(C)(C)c1ccc(-c2nc(NC(=O)CSc3ncnc4sc5c(c34)CCCC5)ns2)cc1	inconclusive: 89.1 µM [inhibitor, single point]
O=C(Nc1nc2c(s1)CCCC2=O)c1cnccn1	inconclusive: 28.2 µM [inhibitor, single point]
C/C(=N\NC(=O)c1cc(C)nc2ccccc12)c1ccco1	inactive
CCOc1ccc(-c2cc3nc(C4CCN(C(=O)OC(C)(C)C)CC4)c(C(=O)Nc4cccc(CC)c4)cn3n2)cc1	inactive
COc1cc(NC(=O)Cn2c(=O)cc(C)c3c(C)nn(-c4ccc(C)cc4)c32)cc(OC)c1	inconclusive: 39.8 µM [inhibitor, single point]
Fc1ccc(NCc2ccccc2-c2nnc(-c3ccccc3Cl)o2)cc1	inconclusive: 89.1 µM [inhibitor, single point]
CC(=O)c1cc(F)c(N2CCN(C(=O)COc3ccccc3F)CC2)cc1C	inconclusive: 12.6 µM [inhibitor, partial curve, poor fit]
O=C(C[N+]12CCCc3cccc(c31)CCC2)c1ccc(Cl)c2ccccc12	inactive
Cc1ccc(NC(=O)NNC(=O)COc2ccc3ccccc3c2)cc1	inconclusive: 56.2 µM [inhibitor, partial curve, poor fit]
Cn1nnnc1SCc1nc2scc(-c3ccccc3)c2c(=O)[nH]1	inactive
Cc1ccccc1NC(=O)Cc1c(O)c2ccccc2[nH]c1=O	inconclusive: 89.1 µM [inhibitor, partial curve, poor fit]

Compound	Potency
CCC(=O)OCCNc1cc(Sc2nc3ccccc3s2)c2nonc2c1[N+](=O)[O-]	inconclusive: 11.2 µM [inhibitor, partial curve, poor fit]
Nc1nc(SCCO)[nH]c(=O)c1NC(=O)c1ccc(Br)o1	inactive
CN(C)c1ccc(NC2=C(Cl)C(=O)c3ccccc3C2=O)cc1	inconclusive: 22.4 µM [inhibitor, full curve, poor fit]
COc1cc(NC(=O)Cn2cc(C(=O)c3ccc(F)cc3)c(=O)c3ccc(C)nc32)cc(OC)c1	inconclusive: 89.1 µM [inhibitor, partial curve, poor fit]
O=C(Nc1ccccc1-c1nc2ccccc2[nH]c1=O)c1cccs1	inconclusive: 44.7 µM [inhibitor, partial curve, poor fit]
CC(C)(C)NCc1cc(Br)ccc1OC1CCCC1	inconclusive: 28.2 µM [inhibitor, single point]
COc1ccccc1C(=O)Nc1cccc(NC(=O)c2ccccc2C)c1	inconclusive: 56.2 µM [inhibitor, partial curve, poor fit]
CCOc1cc(/C=C2\C(=O)N(Cc3ccco3)C(C)=C2C(=O)OC)ccc1O	inconclusive: 17.8 µM [inhibitor, full curve, poor fit]
O=C(COc1cccc2ccccc12)NNC(=O)CSCCO	inconclusive: 79.4 µM [inhibitor, partial curve, poor fit]
COC(=O)N/N=C/c1c(C)nn(-c2cccc(Cl)c2)c1Cl	inconclusive: 89.1 µM [inhibitor, single point]
CCc1ccc(S(=O)(=O)Nc2ccc(O)c3ccccc23)cc1	inconclusive: 10 µM [inhibitor, partial curve]
O=C(Cn1cc(C(=O)c2ccco2)c2ccccc21)NC1CCCC1	inconclusive: 39.8 µM [inhibitor, single point]
COc1cccc(CNC(=O)c2ccc(-n3c(C)cc4c3CCC(C)C4)cc2)c1 (centres undefined)	inconclusive: 79.4 µM [inhibitor, partial curve, poor fit]
COc1cccc(-c2nc(NC3CCCC3)c3ccccc3n2)c1O	inconclusive: 2.51 µM [inhibitor, full curve, poor fit]
CSCCOC(=O)c1[nH]c2c(c1C)C(=O)CC(c1ccco1)C2 (centres undefined)	inconclusive: 31.6 µM [inhibitor, partial curve, poor fit]
COc1cccc(CNC(=O)C2CCN(S(=O)(=O)c3ccc4c(c3)CCCN4C(C)=O)CC2)c1	inactive
N#Cc1ccc(CSc2nnc(NC(=O)c3ccc(=O)[nH]c3)s2)cc1	inconclusive: 25.1 µM [inhibitor, single point]
O=C(Nc1ccccc1C(F)(F)F)n1ncc2cc(Cl)ccc21	inconclusive: 79.4 µM [inhibitor, partial curve]
Cc1nc2ccccc2c(=O)n1/N=C/c1cccnc1	inconclusive: 89.1 µM [inhibitor, single point]
COc1ccccc1N1CCN(/N=C\C(Br)=C\c2ccccc2)CC1	inconclusive: 25.1 µM [inhibitor, single point]
O=S(=O)(c1ccccc1)N(CC1CO1)c1cccc2ccccc12 (centres undefined)	inconclusive: 3.55 µM [inhibitor, full curve, poor fit]
OCc1ccccc1SSc1ccccc1CO	inconclusive: 28.2 µM [inhibitor, partial curve, poor fit]

Structural class, the compounds so far with a tert-butyl group (three)
Compound	Potency
CC(C)(C)c1ccc(-c2nc(NC(=O)CSc3ncnc4sc5c(c34)CCCC5)ns2)cc1	inconclusive: 89.1 µM [inhibitor, single point]
CCOc1ccc(-c2cc3nc(C4CCN(C(=O)OC(C)(C)C)CC4)c(C(=O)Nc4cccc(CC)c4)cn3n2)cc1	inactive
CC(C)(C)NCc1cc(Br)ccc1OC1CCCC1	inconclusive: 28.2 µM [inhibitor, single point]

(next part)

Compound	Potency
C[C@@H]1CN=C2N(CCNC(=O)CCC3CCCCC3)[C@H](Cc3ccc(O)cc3)CN21	inconclusive: 39.8 µM [inhibitor, single point]
CCC1(CC)Cc2ccccc2-c2nc(CN(C)C)[nH]c(=O)c21	inconclusive: 10 µM [inhibitor, partial curve, poor fit]
N#Cc1c(-c2ccccc2)nc(SCc2ccc(Cl)cc2)[nH]c1=O	inconclusive: 39.8 µM [inhibitor, partial curve]
COc1cccc(N=Nc2c(=O)[nH]n3c(=O)c4c([nH]c23)CCC4)c1	inconclusive: 15.8 µM [inhibitor, full curve, poor fit]
CCN(CC(=O)N1CCC(C(N)=O)CC1)S(=O)(=O)c1ccc(Cl)cc1	inactive
Cn1nnnc1SCC(=O)Nc1ccc(Oc2ccccc2)cc1	inconclusive: 39.8 µM [inhibitor, partial curve, poor fit]
CCCn1nc(NS(=O)(=O)c2cccc3nonc23)c2cc3cc(C)ccc3nc21	inconclusive: 14.1 µM [inhibitor, partial curve, poor fit]
O=C(Nc1nc(-c2ccccn2)cs1)c1ccc([N+](=O)[O-])o1	active: 22.4 µM
COc1ccc(Cl)cc1C(=O)Nc1cccc(-c2ccc3nncn3n2)c1	inconclusive: 11.2 µM [inhibitor, partial curve, poor fit]
COc1ccc(C)cc1S(=O)(=O)N(CC(=O)NCc1ccco1)c1ccc(C)cc1	inconclusive: 79.4 µM [inhibitor, single point]
COc1cc(/C=C2/C(=O)NN(c3cccc(C)c3)C2=O)ccc1OC(=O)c1ccco1	inconclusive: 50.1 µM [inhibitor, partial curve, poor fit]
Cc1cc(-c2ccc(C(C)C)c(S(=O)(=O)Nc3ccccn3)c2)on1	inconclusive: 70.8 µM [inhibitor, single point]
COc1ccc(C(=O)NCC(c2ccc3c(c2)OCO3)N2CCN(c3ccccc3F)CC2)cc1 (centres undefined)	inactive
N=C1/C(=C/c2coc3ccccc3c2=O)C(=O)N=C2SC(c3ccco3)=NN12	inconclusive: 8.91 µM [inhibitor, full curve, poor fit]
CCOc1cc(C2c3c(n[nH]c3C)C(=O)N2c2ccc(Br)cc2)ccc1O (centres undefined)	inconclusive: 20 µM [inhibitor, single point]
COc1cccc(C2CC(=O)Nc3c2c(=O)[nH]c2nc4ccccc4n32)c1 (centres undefined)	inactive
CC1(C)Cc2nc(N)c(C(=O)NCCO)cc2CO1	inconclusive: 39.8 µM [inhibitor, single point]
Cc1nc2nc(-c3ccco3)nn2c(C)c1Cl	inconclusive: 25.1 µM [inhibitor, full curve, poor fit]
CS/C(=N\NC(N)=O)c1ccccc1	inconclusive: 89.1 µM [inhibitor, single point]
Oc1ccccc1C1C=C(c2ccc3c(c2)OCO3)NC(c2ccc(F)c(Br)c2)N1 (centres undefined)	inconclusive: 39.8 µM [inhibitor, partial curve]

Quoted from the listing.
Value of `Cn1nnnc1SCC(=O)Nc1ccc(Oc2ccccc2)cc1` under Potency: inconclusive: 39.8 µM [inhibitor, partial curve, poor fit]
Value of `CCN(CC(=O)N1CCC(C(N)=O)CC1)S(=O)(=O)c1ccc(Cl)cc1` under Potency: inactive
